Data as given in PubChem BioAssay AID1508597 (Cure First, 2020)
This is an unselected part of the about 2,100 reagents, in one setting of the screen. 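Calls flag viability under 80% in either arm, not effects specific to rucaparib; the reference for percent is not stated.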 Some reagents were tested in more than one well and are listed for each. No sequences are given here. Not given: the 100% reference.

- Screen: 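Survival screen with siRNA in ovarian cancer cells derived from patients, with or without rucaparib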 (primary screen)
- System: human ovarian carcinoma lines grown from tumours: OCI-P5x (papillary serous) and OCI-C5x (clear cell)
- Reagents: siRNA pool against human genes, 1.25 pmol siRNA per well
- Timing: 72 h or 96 h, depending on the cell culture
- Challenge: rucaparib 20 µM (about IC30) or vehicle, present until read-out
- Rucaparib or vehicle: Rucaparib
- Cell line: OCI-P5x (serous)
- Measurement: 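ATP luminescence measured at 72 or 96 h according to the culture, then normalised and expressed as percent viability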
- Direction: viability, normalised: higher = more viable cells remaining
- Hit rule: 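a well counts as a hit if its normalised viability is under 80 percent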
- Meaning of the calls: active = viability under 80%; inactive = viability 80% or more

Target gene | technical replicate | viability, normalised (%) | Call
PHF3 | 1 | 47 | active
PHF3 | 2 | 40 | active
PHF3 | 3 | 40.3 | active
ERCC4 | 1 | 94.3 | inactive
ERCC4 | 2 | 90.5 | inactive
ERCC4 | 3 | 53.7 | active
ALKBH2 | 1 | 52 | active
ALKBH2 | 2 | 63 | active
ALKBH2 | 3 | 50.5 | active
CRKL | 1 | 69.6 | active
CRKL | 2 | 81.7 | inactive
CRKL | 3 | 49.6 | active
PRPS2 | 1 | 83.5 | inactive
PRPS2 | 2 | 80.1 | inactive
PRPS2 | 3 | 65.7 | active
NME5 | 1 | 69.7 | active
NME5 | 1 | 95.6 | inactive
NME5 | 2 | 103 | inactive
NME5 | 2 | 69.5 | active
NME5 | 3 | 74 | active
NME5 | 3 | 83.3 | inactive
RLIM | 1 | 61.7 | active
RLIM | 2 | 54.5 | active
RLIM | 3 | 57.7 | active

Next part (2 carried over from the part before).
Target gene | technical replicate | viability, normalised (%) | Call
RLIM | 2 | 54.5 | active
RLIM | 3 | 57.7 | active
PLCD3 | 1 | 74.7 | active
PLCD3 | 2 | 67.9 | active
PLCD3 | 3 | 76.4 | active
TOPBP1 | 1 | 62.5 | active
TOPBP1 | 2 | 58.8 | active
TOPBP1 | 3 | 54.2 | active
SMYD1 | 1 | 47.5 | active
SMYD1 | 2 | 56.4 | active
SMYD1 | 3 | 55 | active
IKBKE | 1 | 64 | active
IKBKE | 2 | 74.6 | active
IKBKE | 3 | 49.8 | active
PRDM6 | 1 | 32.2 | active
PRDM6 | 2 | 56.1 | active
PRDM6 | 3 | 44.9 | active
DGKD | 1 | 89.8 | inactive
DGKD | 2 | 99.5 | inactive
DGKD | 3 | 80.5 | inactive
GDPD1 | 1 | 58.3 | active
GDPD1 | 2 | 55.8 | active
GDPD1 | 3 | 61.9 | active
TYMS | 1 | 111 | inactive
TYMS | 2 | 98 | inactive
TYMS | 3 | 116 | inactive
H4C1 | 1 | 78.5 | active
H4C1 | 1 | 76.9 | active
H4C1 | 2 | 64.1 | active
H4C1 | 2 | 72.3 | active
H4C1 | 3 | 93.8 | inactive
H4C1 | 3 | 63 | active
DBH | 1 | 50.7 | active
DBH | 2 | 48.6 | active
DBH | 3 | 58.7 | active
